Assay results as given in publication PMC13389695.
Results are given in words; binding and its absence hold for the method and conditions named. In cells and extracts the contact can be indirect. Some results given as binding are weak or reduced against the parent protein; the word gives no strength. For some assays here: Sequences can lack the tags named with a protein. Each block holds one molecule with its values, some of them ahead of it.

Sequences of proteins named here, by UniProt entry; tags and fusion partners are left off.
UniProt Q15208: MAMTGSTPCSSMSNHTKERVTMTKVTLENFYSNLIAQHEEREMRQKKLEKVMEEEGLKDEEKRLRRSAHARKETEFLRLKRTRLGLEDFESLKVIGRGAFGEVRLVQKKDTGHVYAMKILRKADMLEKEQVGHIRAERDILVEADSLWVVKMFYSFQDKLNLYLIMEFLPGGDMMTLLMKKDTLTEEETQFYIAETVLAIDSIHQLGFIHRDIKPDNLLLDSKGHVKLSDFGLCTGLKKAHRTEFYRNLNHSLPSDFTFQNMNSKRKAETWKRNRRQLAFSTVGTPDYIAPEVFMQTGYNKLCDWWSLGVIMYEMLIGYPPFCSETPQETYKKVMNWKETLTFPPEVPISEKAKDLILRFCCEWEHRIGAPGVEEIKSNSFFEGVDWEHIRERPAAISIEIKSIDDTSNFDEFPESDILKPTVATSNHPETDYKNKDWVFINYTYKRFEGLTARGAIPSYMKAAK
UniProt O94915: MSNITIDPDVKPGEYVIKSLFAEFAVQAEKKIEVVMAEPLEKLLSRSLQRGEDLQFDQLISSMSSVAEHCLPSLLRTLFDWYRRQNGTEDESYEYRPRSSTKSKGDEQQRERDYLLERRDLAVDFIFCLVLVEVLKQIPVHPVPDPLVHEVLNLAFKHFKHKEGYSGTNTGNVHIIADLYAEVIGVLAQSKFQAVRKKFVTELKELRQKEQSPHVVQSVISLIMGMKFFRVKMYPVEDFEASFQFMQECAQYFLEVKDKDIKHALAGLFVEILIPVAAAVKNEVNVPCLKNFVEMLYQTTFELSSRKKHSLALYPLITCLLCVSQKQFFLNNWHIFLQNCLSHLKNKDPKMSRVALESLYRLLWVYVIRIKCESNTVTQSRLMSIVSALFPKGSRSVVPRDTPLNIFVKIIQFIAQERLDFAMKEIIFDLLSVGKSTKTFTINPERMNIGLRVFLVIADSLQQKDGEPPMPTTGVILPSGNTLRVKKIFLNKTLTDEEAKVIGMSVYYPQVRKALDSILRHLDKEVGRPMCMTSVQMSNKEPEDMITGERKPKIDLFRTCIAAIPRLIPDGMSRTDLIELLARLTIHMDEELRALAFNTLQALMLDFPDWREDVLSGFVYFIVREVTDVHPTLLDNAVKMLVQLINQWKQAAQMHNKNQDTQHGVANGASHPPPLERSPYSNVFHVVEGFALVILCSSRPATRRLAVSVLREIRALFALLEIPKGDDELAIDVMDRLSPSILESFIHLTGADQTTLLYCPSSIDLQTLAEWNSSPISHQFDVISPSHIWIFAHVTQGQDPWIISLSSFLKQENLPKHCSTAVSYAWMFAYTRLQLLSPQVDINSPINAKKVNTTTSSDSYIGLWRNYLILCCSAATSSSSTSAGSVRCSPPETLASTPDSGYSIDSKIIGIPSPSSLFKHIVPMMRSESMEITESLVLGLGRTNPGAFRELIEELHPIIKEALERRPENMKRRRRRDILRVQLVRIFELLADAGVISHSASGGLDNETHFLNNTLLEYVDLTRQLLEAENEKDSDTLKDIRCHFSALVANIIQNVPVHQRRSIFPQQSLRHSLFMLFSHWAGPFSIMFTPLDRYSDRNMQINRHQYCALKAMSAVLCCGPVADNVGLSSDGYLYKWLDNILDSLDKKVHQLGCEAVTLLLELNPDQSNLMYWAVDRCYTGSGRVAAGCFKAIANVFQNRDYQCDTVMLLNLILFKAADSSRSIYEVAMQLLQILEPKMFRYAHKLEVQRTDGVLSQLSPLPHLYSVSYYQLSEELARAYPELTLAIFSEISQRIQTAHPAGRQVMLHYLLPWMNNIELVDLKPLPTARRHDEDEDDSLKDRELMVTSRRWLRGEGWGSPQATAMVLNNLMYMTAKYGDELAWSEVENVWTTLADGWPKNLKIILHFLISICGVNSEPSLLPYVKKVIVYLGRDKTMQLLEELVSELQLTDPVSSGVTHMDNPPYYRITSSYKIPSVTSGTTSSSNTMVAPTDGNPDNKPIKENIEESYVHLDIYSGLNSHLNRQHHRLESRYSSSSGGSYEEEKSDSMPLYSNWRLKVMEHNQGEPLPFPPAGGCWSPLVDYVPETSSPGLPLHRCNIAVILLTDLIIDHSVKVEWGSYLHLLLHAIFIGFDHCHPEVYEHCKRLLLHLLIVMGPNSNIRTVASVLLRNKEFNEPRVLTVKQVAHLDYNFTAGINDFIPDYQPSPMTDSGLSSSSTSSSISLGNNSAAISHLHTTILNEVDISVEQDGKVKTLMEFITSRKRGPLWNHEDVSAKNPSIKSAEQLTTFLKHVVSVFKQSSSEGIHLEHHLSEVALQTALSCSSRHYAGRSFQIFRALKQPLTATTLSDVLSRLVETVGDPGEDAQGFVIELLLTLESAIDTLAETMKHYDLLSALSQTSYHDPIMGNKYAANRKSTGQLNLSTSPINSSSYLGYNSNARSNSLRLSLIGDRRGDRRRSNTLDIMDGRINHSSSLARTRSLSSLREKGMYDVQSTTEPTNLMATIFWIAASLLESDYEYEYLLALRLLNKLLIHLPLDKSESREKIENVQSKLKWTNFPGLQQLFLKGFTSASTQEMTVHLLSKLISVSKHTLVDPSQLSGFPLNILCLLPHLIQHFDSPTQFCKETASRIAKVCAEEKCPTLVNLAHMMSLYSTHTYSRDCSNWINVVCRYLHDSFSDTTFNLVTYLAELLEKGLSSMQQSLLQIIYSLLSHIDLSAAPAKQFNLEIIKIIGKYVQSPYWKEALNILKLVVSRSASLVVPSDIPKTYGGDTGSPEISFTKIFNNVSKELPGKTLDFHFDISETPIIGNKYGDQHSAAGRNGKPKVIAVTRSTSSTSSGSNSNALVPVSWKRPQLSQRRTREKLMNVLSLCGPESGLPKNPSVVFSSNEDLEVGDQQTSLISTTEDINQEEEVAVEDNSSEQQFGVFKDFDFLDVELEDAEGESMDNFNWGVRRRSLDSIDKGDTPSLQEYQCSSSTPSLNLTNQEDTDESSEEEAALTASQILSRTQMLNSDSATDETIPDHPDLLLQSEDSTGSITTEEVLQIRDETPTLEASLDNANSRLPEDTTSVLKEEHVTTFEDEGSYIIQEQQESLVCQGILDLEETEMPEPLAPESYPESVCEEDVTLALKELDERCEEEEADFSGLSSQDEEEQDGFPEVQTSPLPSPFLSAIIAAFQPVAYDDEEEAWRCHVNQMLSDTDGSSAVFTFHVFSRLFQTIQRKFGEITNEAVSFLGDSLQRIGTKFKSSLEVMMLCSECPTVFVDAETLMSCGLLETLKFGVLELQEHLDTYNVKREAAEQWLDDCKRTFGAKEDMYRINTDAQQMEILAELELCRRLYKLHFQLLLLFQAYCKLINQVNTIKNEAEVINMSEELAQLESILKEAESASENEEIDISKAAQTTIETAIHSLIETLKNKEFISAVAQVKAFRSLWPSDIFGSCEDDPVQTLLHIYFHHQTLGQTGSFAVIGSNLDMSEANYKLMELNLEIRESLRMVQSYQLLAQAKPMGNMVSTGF

Experiments:
GFP-NDR1 = GFP-NDR1 (UniProt Q15208); assay: co-IP; GFP-NDR1 in 293 T cells (SI Appendix Fig. S6C)
WT GFP-FRYL = WT GFP-FRYL (UniProt O94915); assay: co-IP; IP of WT GFP-FRYL and the FRYL HBMs M1 and M2 from 293 T cell lysates

binding (GFP-NDR1): binds
Molecule: FRYL (in 293 T cells, co-IP with GFP-NDR1) (from UniProt O94915 1-3013)

binding (WT GFP-FRYL): binds
B1: Homer3 (293 T cell lysate, IP of GFP-FRYL) (protein, UniProt Q9NSC5 1-361)
chain: MSTAREQPIFSTRAHVFQIDPATKRNWIPAGKHALTVSYFYDATRNVYRIISIGGAKAIINSTVTPNMTFTKTSQKFGQWADSRANTVYGLGFASEQHLTQFAEKFQEVKEAARLAREKSQDGGELTSPALGLASHQVPPSPLVSANGPGEEKLFRSQSADAPGPTERERLKKMLSEGSVGEVQWEAEFFALQDSNNKLAGALREANAAAAQWRQQLEAQRAEAERLRQRVAELEAQAASEVTPTGEKEGLGQGQSLEQLEALVQTKDQEIQTLKSQTGGPREALEAAEREETQQKVQDLETRNAELEHQLRAMERSLEEARAERERARAEVGRAAQLLDVSLFELSELREGLARLAEAAP

binding (WT GFP-FRYL): binds
B2: Homer2 (293 T cell lysate, IP of GFP-FRYL) (protein, UniProt Q9NSB8 1-354)
chain: MGEQPIFTTRAHVFQIDPNTKKNWMPASKQAVTVSYFYDVTRNSYRIISVDGAKVIINSTITPNMTFTKTSQKFGQWADSRANTVFGLGFSSEQQLTKFAEKFQEVKEAAKIAKDKTQEKIETSSNHSQESGRETPSSTQASSVNGTDDEKASHAGPANTHLKSENDKLKIALTQSAANVKKWEIELQTLRESNARLTTALQESAASVEQWKRQFSICRDENDRLRNKIDELEEQCSEINREKEKNTQLKRRIEELEAELREKETELKDLRKQSEIIPQLMSECEYVSEKLEAAERDNQNLEDKVRSLKTDIEESKYRQRHLKVELKSFLEVLDGKIDDLHDFRRGLSKLGTDN

binding (GFP-NDR1): binds
B3: MOB1a (protein, UniProt Q9H8S9 1-216)
chain: MSFLFSSRSSKTFKPKKNIPEGSHQYELLKHAEATLGSGNLRQAVMLPEGEDLNEWIAVNTVDFFNQINMLYGTITEFCTEASCPVMSAGPRYEYHWADGTNIKKPIKCSAPKYIDYLMTWVQDQLDDETLFPSKIGVPFPKNFMSVAKTILKRLFRVYAHIYHQHFDSVMQLQEEAHLNTSFKHFIFFVQEFNLIDRRELAPLQELIEKLGSKDR

binding (WT GFP-FRYL): binds
B4: Homer1 (293 T cell lysate, IP of GFP-FRYL) (protein, UniProt Q86YM7 1-354)
chain: MGEQPIFSTRAHVFQIDPNTKKNWVPTSKHAVTVSYFYDSTRNVYRIISLDGSKAIINSTITPNMTFTKTSQKFGQWADSRANTVYGLGFSSEHHLSKFAEKFQEFKEAARLAKEKSQEKMELTSTPSQESAGGDLQSPLTPESINGTDDERTPDVTQNSEPRAEPTQNALPFSHSSAISKHWEAELATLKGNNAKLTAALLESTANVKQWKQQLAAYQEEAERLHKRVTELECVSSQANAVHTHKTELNQTIQELEETLKLKEEEIERLKQEIDNARELQEQRDSLTQKLQEVEIRNKDLEGQLSDLEQRLEKSQNEQEAFRNNLKTLLEILDGKIFELTELRDNLAKLLECS
